From publication doi:10.1101/2020.12.21.423430

By UniProt entry, the sequences of proteins in these tests, tags left out.
UniProt P29514: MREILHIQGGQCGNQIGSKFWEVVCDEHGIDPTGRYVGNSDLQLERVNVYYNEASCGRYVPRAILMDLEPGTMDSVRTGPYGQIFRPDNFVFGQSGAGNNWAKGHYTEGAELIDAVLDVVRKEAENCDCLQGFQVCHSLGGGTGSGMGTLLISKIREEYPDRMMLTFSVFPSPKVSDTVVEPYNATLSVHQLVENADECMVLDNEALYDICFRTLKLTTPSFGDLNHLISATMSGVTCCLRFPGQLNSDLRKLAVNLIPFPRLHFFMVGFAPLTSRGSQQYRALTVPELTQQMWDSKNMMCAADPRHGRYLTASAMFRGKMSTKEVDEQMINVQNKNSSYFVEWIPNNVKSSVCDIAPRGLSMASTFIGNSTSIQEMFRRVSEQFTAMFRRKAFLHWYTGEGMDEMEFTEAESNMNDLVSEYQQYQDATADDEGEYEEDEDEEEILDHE

T1: …OPEPTIDE-REPEAT THIOREDOXIN-LIKE 3 (TTL3)-GFP, expressed from pTTL3::TTL3-GFP (Arabidopsis thaliana) (UniProt Q9SIN1)
T1 sequence: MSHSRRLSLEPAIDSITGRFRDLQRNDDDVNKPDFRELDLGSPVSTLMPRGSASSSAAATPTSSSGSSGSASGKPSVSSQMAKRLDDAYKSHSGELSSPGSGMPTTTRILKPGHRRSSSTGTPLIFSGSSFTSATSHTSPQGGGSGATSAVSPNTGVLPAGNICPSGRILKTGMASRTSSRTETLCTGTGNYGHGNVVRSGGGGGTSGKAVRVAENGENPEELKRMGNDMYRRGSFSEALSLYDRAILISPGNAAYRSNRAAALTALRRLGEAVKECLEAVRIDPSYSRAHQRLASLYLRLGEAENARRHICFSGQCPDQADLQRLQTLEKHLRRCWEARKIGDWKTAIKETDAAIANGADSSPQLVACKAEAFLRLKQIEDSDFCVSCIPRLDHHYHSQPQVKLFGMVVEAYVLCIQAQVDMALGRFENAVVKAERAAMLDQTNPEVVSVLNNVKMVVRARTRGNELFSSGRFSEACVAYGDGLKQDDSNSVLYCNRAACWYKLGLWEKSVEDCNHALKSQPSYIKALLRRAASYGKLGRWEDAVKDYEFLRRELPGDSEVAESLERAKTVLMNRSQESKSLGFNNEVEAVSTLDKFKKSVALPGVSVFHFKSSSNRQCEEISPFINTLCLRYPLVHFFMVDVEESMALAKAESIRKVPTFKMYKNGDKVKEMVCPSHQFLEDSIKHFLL


Legend:
[1] = biological target: T1, …OPEPTIDE-REPEAT THIOREDOXIN-LIKE 3 (TTL3)-GFP, expressed from pTTL3::TTL3-GFP (Arabidopsis thaliana); experiment: affinity purification with mass spectrometry
[2] = biological target: T1, …OPEPTIDE-REPEAT THIOREDOXIN-LIKE 3 (TTL3)-GFP, expressed from pTTL3::TTL3-GFP (Arabidopsis thaliana); experiment: affinity purification with mass spectrometry; remark: listed apart in the source

| binding [1] | binding [2] | Molecule |
| --- | --- | --- |
| binds | – | CLC1, endogenous |
| binds | – | TUB6 (Tubulin 6), endogenous (from UniProt P29514 1-449) |
| – | binds | PME3 (pectin methyl esterase 3), endogenous (protein, UniProt O49006 36-592) AGISAGASKANEKRTLSPSSHAVLRSSCSSTRYPELCISAVVTAGGVELTSQKDVIEASVNLTITAVEHNYFTVKKLIKKRKGLTPREKTALHDCLETIDETLDELHETVEDLHLYPTKKTLREHAGDLKTLISSAITNQETCLDGFSHDDADKQVRKALLKGQIHVEHMCSNALAMIKNMTDTDIANFEQKAKITSNNRKLKEENQETTVAVDIAGAGELDSEGWPTWLSAGDRRLLQGSGVKADATVAADGSGTFKTVAAAVAAAPENSNKRYVIHIKAGVYRENVEVAKKKKNIMFMGDGRTRTIITGSRNVVDGSTTFHSATVAAVGERFLARDITFQNTAGPSKHQAVALRVGSDFSAFYNCDMLAYQDTLYVHSNRQFFVKCLIAGTVDFIFGNAAVVLQDCDIHARRPNSGQKNMVTAQGRTDPNQNTGIVIQKCRIGATSDLQSVKGSFPTYLGRPWKEYSQTVIMQSAISDVIRPEGWSEWTGTFALNTLTYREYSNTGAGAGTANRVKWRGFKVITAAAEAQKYTAGQFIGGGGWLSSTGFPFSLGL |

Where two headings read alike, the source gives them in different places. These are yes or no findings as the source states them, for the method shown. Binding seen in cells or lysates may run through a third protein. Here binding means that the protein was enriched with, or labelled near, the bait; the list need not be complete. Tags and fused reporters may be left off the sequences shown.
